Measurements reported in PubChem BioAssay AID1259298 (Sanger Institute, 2017)
Aim: 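Kinase knock-downs that cut colorectal cancer cell viability or act with targeted drugs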 (primary screen). Cells: HT55 human colorectal cancer cell line. Knock-down reagent: siRNA pool against human genes. Treatment: anchor drug BYL719 1 µM, cetuximab 5 µg/ml or trametinib 10 nM, or DMSO vehicle alone. Measurement: 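Mean viability over replicates versus non-targeting pool, a robust z-score without drug, and per-drug synergy scores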. Scale: robust z-score, knock-down alone: higher = more cells remaining; low means essential gene; viability vs control pool, no drug: higher = more viable cells. Call rule: 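Essential when the robust z-score for knock-down alone with DMSO is below -3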. Calls: active = essential (knock-down alone); inactive = no change alone.
In all, the deposit lists 794 reagents; below is a part drawn at random. 20 of them (2.5%) count as active. 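Calls rest only on the knock-down-alone score; drug synergy scores played no part in them.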 Entries without a mark were called inactive. No viability above 1 is reported: the scale is capped. Not all columns of the deposit are shown. No sequences are given here. The record does not give: the amount of reagent, the time to read-out.

PAK1 — robust z-score, knock-down alone: -0.741; viability vs control pool, no drug (fraction): 0.897
NME1 — robust z-score, knock-down alone: 0.58; viability vs control pool, no drug (fraction): 1
CAD — robust z-score, knock-down alone: 0.58; viability vs control pool, no drug (fraction): 1
PCBP1 — robust z-score, knock-down alone: -0.128; viability vs control pool, no drug (fraction): 0.945
CDK14 — robust z-score, knock-down alone: 0.58; viability vs control pool, no drug (fraction): 1
STK39 — robust z-score, knock-down alone: 0.58; viability vs control pool, no drug (fraction): 1
PAPSS1 — robust z-score, knock-down alone: 0.58; viability vs control pool, no drug (fraction): 1
TRIB3 — robust z-score, knock-down alone: -1.61; viability vs control pool, no drug (fraction): 0.829
TYK2 — robust z-score, knock-down alone: -0.676; viability vs control pool, no drug (fraction): 0.902
CDK19 — robust z-score, knock-down alone: -0.817; viability vs control pool, no drug (fraction): 0.891
CLSPN — robust z-score, knock-down alone: -0.464; viability vs control pool, no drug (fraction): 0.918
NME2 — robust z-score, knock-down alone: 0.316; viability vs control pool, no drug (fraction): 0.979
PIK3R4 — robust z-score, knock-down alone: 0.58; viability vs control pool, no drug (fraction): 1
TSSK3 — robust z-score, knock-down alone: 0.58; viability vs control pool, no drug (fraction): 1
NADK — robust z-score, knock-down alone: 0.58; viability vs control pool, no drug (fraction): 1
ATM — robust z-score, knock-down alone: 0.197; viability vs control pool, no drug (fraction): 0.97
PRKAA2 — robust z-score, knock-down alone: 0.58; viability vs control pool, no drug (fraction): 1
SCYL1 — robust z-score, knock-down alone: 0.58; viability vs control pool, no drug (fraction): 1
EXOSC10 — robust z-score, knock-down alone: -0.299; viability vs control pool, no drug (fraction): 0.931
PIK3C2G — robust z-score, knock-down alone: -1.44; viability vs control pool, no drug (fraction): 0.842
BRSK1 — robust z-score, knock-down alone: -0.191; viability vs control pool, no drug (fraction): 0.94
PKIB — robust z-score, knock-down alone: 0.58; viability vs control pool, no drug (fraction): 1
PIP5K1B — robust z-score, knock-down alone: 0.58; viability vs control pool, no drug (fraction): 1
STRADA — robust z-score, knock-down alone: 0.58; viability vs control pool, no drug (fraction): 1
GRK2 — robust z-score, knock-down alone: 0.58; viability vs control pool, no drug (fraction): 1
TNK1 — robust z-score, knock-down alone: 0.58; viability vs control pool, no drug (fraction): 1
MAPK7 — robust z-score, knock-down alone: 0.58; viability vs control pool, no drug (fraction): 1
VRK3 — robust z-score, knock-down alone: 0.58; viability vs control pool, no drug (fraction): 1
ULK4 — robust z-score, knock-down alone: -1.36; viability vs control pool, no drug (fraction): 0.849
PIK3C2B — robust z-score, knock-down alone: 0.58; viability vs control pool, no drug (fraction): 1
NEK10 — robust z-score, knock-down alone: -0.887; viability vs control pool, no drug (fraction): 0.885
ULK3 — robust z-score, knock-down alone: 0.58; viability vs control pool, no drug (fraction): 1
N4BP2 — robust z-score, knock-down alone: 0.0832; viability vs control pool, no drug (fraction): 0.961
PDXK — robust z-score, knock-down alone: 0.58; viability vs control pool, no drug (fraction): 1
IGF1R — robust z-score, knock-down alone: -1.1; viability vs control pool, no drug (fraction): 0.869
EPHA3 — robust z-score, knock-down alone: -0.634; viability vs control pool, no drug (fraction): 0.905

Part of the list above, reduced to “viability vs control pool, no drug (fraction)”:
PIP5K1B	1
STRADA	1
GRK2	1
TNK1	1
